Test results published in patent publication US5721207A, “Method for treatment of pain” (Innapharma, Inc., priority 1995, dated 1998).

System: rat
Settings: intrathecal

CN1CC[C@]23c4c5ccc(O)c4O[C@H]2[C@@H](O)C=C[C@H]3[C@H]1C5.O=S(=O)(O)O [Morphine, Morphine sulfate]
duration of analgesia, elcatonin compared with morphine: appeared to be shorter than for elcatonin | time by which reduced potency is apparent (post-injection): ≤ 3 h
